# Measured values: PubChem BioAssay AID1487 (National Center for Advancing Translational Sciences (NCATS), 2009)
# The other results are listed elsewhere or left out. Shown are side measurements of this screen, not its main read-out; they come without a call. Compounds called inactive in the main read-out are mostly missing here. Potencies come from curve fits of mixed quality, noted in brackets.
# Experiment: qHTS Assay for Modulators of Lamin A Splicing
# Settings: HeLa LMNA splicing GFP/RFP minigene ratio, 48 h
# In short: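 S3 HeLa stable clones carrying a lamin A-EGFP splicing minigene plus DsRed2 were seeded at 600 cells/well in Opti-MEM with 2% FBS, pin-dosed and incubated 48 h at 37°C. Acumen cytometry (488 nm) gave the GFP/RFP total-intensity ratio.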
# [1] = measured here: RFP viability control channel
# [2] = measured here: GFP splicing reporter channel
Structure (SMILES),AC50 [1],AC50 [2]
Cc1cccc(NC(=S)N(C)Cc2cn(C)c3ccccc23)c1,"17.8 µM [rising, single point]",
Brc1cccc(C2CC(c3ccccc3)n3nnnc3N2)c1 (configuration not stated),"1 µM [falling, full curve]","0.794 µM [falling, full curve]"
O=C(Cn1c(=O)sc2ccccc21)Nc1nc2c(s1)CCCC2,"11.2 µM [rising, single point]",
COc1ccccc1Cc1nc2ccccc2nc1SCC(=O)NCCc1ccccc1,,"0.398 µM [rising, full curve, poor fit]"
O=c1n(CCCN2CCN(c3cccc(Cl)c3)CC2)nc2ccccn12,"14.1 µM [rising, single point]","0.0708 µM [rising, full curve, poor fit]"
O=C(CSc1ccc(Br)c2cccc(Cl)c12)Nc1ccc(S(=O)(=O)Nc2nccs2)cc1,"35.5 µM [falling, partial curve, poor fit]","14.1 µM [falling, partial curve]"
O=C(NNC(=O)C12CC3CC(CC(C3)C1)C2)c1cnccn1,"12.6 µM [rising, partial curve]",
CCn1c(C)cc(C)c(C#N)c1=O,"0.316 µM [rising, partial curve, poor fit]",
O=C(NNC(=O)c1ccc(O)cc1O)c1ccc(Cl)cc1,"17.8 µM [rising, partial curve, poor fit]",
CCc1ccc(OCCCC(=O)Nc2nnc(C3CCCO3)s2)cc1 (configuration not stated),"39.8 µM [falling, partial curve, poor fit]","0.00447 µM [falling, full curve, poor fit]"
O=C(O)c1cc(=O)[nH]c(=O)[nH]1,"1.26 µM [falling, single point]","0.0891 µM [falling, full curve, poor fit]"
O=C(c1cccs1)c1coc2ccc(O)c(CN(CCO)CCO)c12,"7.08 µM [rising, full curve, poor fit]",
CCCCCOC(=O)Cn1c(N2CCCCCC2)nc2c1c(=O)[nH]c(=O)n2C,"25.1 µM [rising, single point]",
Cc1nn(-c2ccccc2)c(N2CCCC2)c1/C=N/NC(=O)c1ccccc1O,"11.2 µM [rising, partial curve]","7.94 µM [rising, partial curve, poor fit]"
O=c1c(-c2ccc(Cl)cc2)nc2cnc(Nc3ccccc3)nc2n1C1CC1,"14.1 µM [falling, partial curve]","11.2 µM [falling, partial curve]"
CC12CCC(C(=O)NNc3ccccc3)(C(=O)C1=O)C2(C)C (configuration not stated),"2.24 µM [rising, full curve, poor fit]","4.47 µM [rising, full curve]"
CCC(CC)C(=O)Nc1cc(C(=O)OC)cc(C(=O)OC)c1,"0.0282 µM [falling, full curve, poor fit]",
O=C(Nc1ccnc(-c2ccncc2)n1)C1CC1,,"5.62 µM [rising, single point]"
Cc1ccc(S(=O)(=O)N(C)CC(=O)OCC(=O)NC(c2ccccc2)c2ccccc2)cc1,"12.6 µM [falling, partial curve, poor fit]",
CCOC(=O)c1[nH]c2ccc(OC)cc2c1NC(=S)N1CCN(C(=O)OCC)CC1,"22.4 µM [falling, partial curve, poor fit]",
CC(C)(C)C(=O)Nc1ccccc1C(=O)OCC(=O)c1ccc2c(c1)OCCO2,"20 µM [rising, single point]",
CCc1ccc(NC(=O)N2CCN(Cc3cc(=O)n4nc(-c5ccccc5OC)sc4n3)CC2)cc1,"1.12 µM [rising, full curve]","0.316 µM [rising, full curve]"
O=[N+]([O-])c1cccc(/C=N/N2CCN(c3ccccn3)CC2)c1,"3.55 µM [falling, partial curve, poor fit]",
CCOc1ccccc1N(C(=O)c1ccccc1Cl)C1=NC(C)(C)CS1,,"10 µM [falling, partial curve, poor fit]"
COc1ccc2nc(NC(=O)c3ccc(S(=O)(=O)N4CCC(C)CC4)cc3)sc2c1,"0.0251 µM [rising, full curve, poor fit]","0.126 µM [rising, full curve, poor fit]"
Cc1ccnc(SCC(=O)c2ccc(Br)cc2)c1C#N,"12.6 µM [rising, partial curve]","8.91 µM [rising, partial curve, poor fit]"
N#C/C(=C/c1ccc(-c2ccc(S(N)(=O)=O)cc2)o1)C(=O)Nc1ccccc1,"6.31 µM [rising, single point]",

# Already shown: an excerpt of the list.
Structure (SMILES),AC50 [1],AC50 [2]
CCOC(=O)c1[nH]c2ccc(OC)cc2c1NC(=S)N1CCN(C(=O)OCC)CC1,"22.4 µM [falling, partial curve, poor fit]",
CC(C)(C)C(=O)Nc1ccccc1C(=O)OCC(=O)c1ccc2c(c1)OCCO2,"20 µM [rising, single point]",
CCc1ccc(NC(=O)N2CCN(Cc3cc(=O)n4nc(-c5ccccc5OC)sc4n3)CC2)cc1,"1.12 µM [rising, full curve]","0.316 µM [rising, full curve]"

# Additional results follow:

Structure (SMILES),AC50 [1],AC50 [2]
CCC1CSC(Nc2ccc(C(=O)/C=C/c3ccc(Oc4ccccc4)cc3)cc2)=N1 (configuration not stated),"2.82 µM [falling, single point]","31.6 µM [falling, single point]"
OC12CCCCC1C(c1ccc3c(c1)OCO3)N(Cc1cccc(F)c1)CC2 (configuration not stated),"35.5 µM [falling, single point]","3.55 µM [falling, single point]"
Cc1ccc(NC(=S)N=Nc2c(O)n(C)c3ccc(S(=O)(=O)N4CCOCC4)cc23)cc1C,"3.55 µM [rising, single point]",
Cc1[nH]c(=O)[nH]c(=O)c1/C=C/C(=O)OCC(C)C,,"6.31 µM [falling, single point]"
Cn1c(SCC(=O)N2c3ccccc3Sc3ccccc32)nc2ccccc21,"14.1 µM [rising, partial curve, poor fit]",
CC(C)(C)c1ccc(CSC2=Nc3ccccc3C3=NC(CC(=O)NCc4cccs4)C(=O)N23)cc1 (configuration not stated),"35.5 µM [falling, single point]","28.2 µM [falling, single point]"
c1ccc(COc2cccc(CN3CCN(c4ccccn4)CC3)c2)cc1,"35.5 µM [rising, single point]","12.6 µM [rising, partial curve]"
Cc1ccc(C(=O)NC(=C(Cl)Cl)S(=O)(=O)c2ccc(C)cc2)cc1,"17.8 µM [falling, single point]","25.1 µM [falling, partial curve]"
COc1ccc(OC)c(-c2csc(NC(=O)CSc3ccc(Br)cc3)n2)c1,"31.6 µM [rising, single point]",
CC(Oc1ccccc1F)C(=O)/C=C/N(C)C (configuration not stated),"2.51 µM [falling, partial curve]",
COc1cc(/C=N/N(C)c2ccccc2)cc(Cl)c1O,"14.1 µM [falling, partial curve]","22.4 µM [falling, single point]"
O=C(CN1C(=O)c2ccccc2C1=O)NCCOc1ccccc1,"5.62 µM [rising, single point]",
CNC(=O)CN(c1ccc(C23CC4CC(CC(C4)C2)C3)cc1)S(C)(=O)=O,,"0.00398 µM [falling, full curve, poor fit]"
CCC(=O)c1ccc(OCC(=O)N(C)CC(=O)Nc2cccc(F)c2)cc1,"0.158 µM [falling, full curve]","0.141 µM [falling, full curve]"
Cc1ccc(/C=N/NC(=O)CSc2nc3ccccc3c(=O)n2-c2ccccc2C)s1,,"7.08 µM [rising, full curve, poor fit]"
CNC(=S)NNC(=O)c1ccc2c(c1)OCO2,"31.6 µM [rising, single point]","12.6 µM [rising, single point]"
CC(=O)c1c(C)nc2nonc2c1N,"0.562 µM [falling, full curve, poor fit]",
COc1cc2c(cc1OC)C(c1cccc([N+](=O)[O-])c1)N(C(=O)c1ccccc1C(=O)O)CC2 (configuration not stated),,"0.501 µM [rising, full curve, poor fit]"
CCOC(=O)c1c(N2C(=O)Nc3ccccc3N2O)sc2c1CCCC2,"0.501 µM [rising, full curve]",
Cc1onc(-c2ccccc2)c1C(=O)Nc1nnc(COc2ccc(Cl)cc2)s1,"17.8 µM [rising, single point]","12.6 µM [rising, partial curve]"
Oc1ccc(-c2nc(-c3ccc(F)cc3)c(-c3ccncc3)[nH]2)cc1,"5.01 µM [falling, partial curve]","1.58 µM [falling, full curve]"
Cc1cccc(C)c1Nc1nnc(SCC(=O)NC2CCS(=O)(=O)C2)s1 (configuration not stated),"1.78 µM [rising, partial curve]","0.708 µM [rising, single point]"
Cc1ccc(NC(=O)C2SC(=Nc3ccccc3)C(C(=O)Nc3ccc(Cl)cc3)=C2N)cc1 (configuration not stated),"35.5 µM [rising, single point]","31.6 µM [falling, partial curve]"
Cc1ccc(CSc2c(C)cnc3c2c(=O)n(C)c(=O)n3C)cc1,"6.31 µM [rising, single point]",
COc1cccc2sc(NC(=O)c3ccc4c(c3)OCCO4)nc12,"35.5 µM [rising, single point]",
Cc1cc(N/N=C/c2ccc(O)cc2O)nc(-c2ccccc2O)n1,,"35.5 µM [falling, single point]"
CC1CCc2c(nc3sc4c(c3c2N)CCCC4)C1 (configuration not stated),"8.91 µM [rising, partial curve]",
